The nature of this data set: general procedure: peptide synthesis; aminomethyl-polystyrene with 4-(oxymethyl)phenylacetyl handle (PAM-Resin); active esters of protected amino acids. As to conditions: whole synthesis, overall theoretical yield, ammonium salt.

In the case of cholecystokinin (26-33), the crude yield was determined as 105%. For the same substance, the isolated yield (run 1) turned out to be 23%. Also, the isolated yield (run 2) was 29%.
